Results are given in words; binding and its absence hold for the method and conditions named. Some binding calls cover weakened binding; strength is not graded here.
Key:
[1] = target: human GFRAL (analyte in Biacore assays) (human) (UniProt Q6UXV0); experiment: SPR (FIGS. 13A and 13B)
[2] = target: mouse GFRAL (analyte in Biacore assays) (mouse) (UniProt Q6SJE0); experiment: Biacore SPR, antibody captured, GFRAL injected
[3] = target: human GFRAL (analyte in Biacore assays) (human) (UniProt Q6UXV0); experiment: Biacore SPR (FIG. 3)

Amino acid sequences for entries named in this document (tags omitted). A change or cut given only in a name is not applied to a line headed by its entry.
UniProt Q6UXV0: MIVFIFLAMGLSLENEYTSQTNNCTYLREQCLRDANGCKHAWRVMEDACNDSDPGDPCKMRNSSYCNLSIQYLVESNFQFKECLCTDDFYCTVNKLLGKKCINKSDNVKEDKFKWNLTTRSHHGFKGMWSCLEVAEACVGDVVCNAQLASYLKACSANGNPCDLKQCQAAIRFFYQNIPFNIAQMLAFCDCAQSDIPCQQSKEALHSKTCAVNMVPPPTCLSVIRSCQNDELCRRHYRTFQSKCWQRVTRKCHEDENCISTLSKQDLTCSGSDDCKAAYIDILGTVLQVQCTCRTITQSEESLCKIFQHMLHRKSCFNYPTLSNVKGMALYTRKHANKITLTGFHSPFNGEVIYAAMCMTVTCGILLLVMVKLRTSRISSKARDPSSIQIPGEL
UniProt Q6SJE0: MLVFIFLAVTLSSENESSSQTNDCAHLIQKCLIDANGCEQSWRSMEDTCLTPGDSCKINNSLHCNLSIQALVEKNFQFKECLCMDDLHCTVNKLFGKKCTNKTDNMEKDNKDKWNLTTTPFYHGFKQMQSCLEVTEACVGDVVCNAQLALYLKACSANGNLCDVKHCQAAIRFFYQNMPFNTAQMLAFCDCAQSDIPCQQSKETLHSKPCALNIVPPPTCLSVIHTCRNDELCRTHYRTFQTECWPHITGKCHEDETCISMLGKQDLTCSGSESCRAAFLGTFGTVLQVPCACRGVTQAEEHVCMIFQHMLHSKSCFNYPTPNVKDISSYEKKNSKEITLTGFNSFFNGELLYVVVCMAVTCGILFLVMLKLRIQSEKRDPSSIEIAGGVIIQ

B1: humanized anti-GFRAL antibody HC-344e/LC-344h (antibody, IgG1, V domains shown)
VH: QVQLVQSGAEVKKPGSSVKVSCKASGYTFTDYGVIWVRQAPGQGLEWMGWINTYTGEPTYADDLKGRVTFTADESTSTAYMELSSLRSEDTAVYYCARRYGPEDIDYWGQGTTVTVSS
VL: DVVLTQSPLSLPVTLGQPASISCRASESVDNYGISFMSWFQQRPGQSPRLLIYAASHQGSGVPDRFSGSGSGTDFTLKISRVEAEDVGVYFCLQSKEVPWTFGGGTKVEIK
- binding [1]: binds

B2: antibody designated 8C10 (antibody, V domains shown)
VH: QVQLQQSGVELARPGAAVKLSCKASGYTFANYGLTWVKQRTGQGLEWIGEIYPGSGHTHYNEDFKGKATLTADRSSSTAYMELRSLTSEDSAVYFCARRIQLLLPVGGFVYWGQGTLVTVSA
VL: DFVLTQSPATLSVTPGDSVSLSCRASQSISNNLHWYQQKSHESPRLLIKYASQSISGIPSRFSGSGSGTDFTLSINSVETEDFGVYFCQQSNSWPHTFGGGTKLEIK
- binding [2]: binds

B3: antibody designated 1C1 (antibody, V domains shown)
VH: QMQLKQSGPGLVQPSQSLSITCTVSGFSLNDYGVHWIRQSPGKGLEWLGVIWSGGRTDYNAAFISRLSISKDNSKSQVFFKMSSLQPQDTAIYYCARWALYFLYGGSMDYWGQGTSVTVSS
VL: DVVLTQTPLSLPVSPGDQASISCRSSQSLVHSSGITYLHWYLQKPGQSPKLLIYKLSNRFSGVPDRFSGSGSGTDFTLKISRVEAEDLGVYFCSQSTHVPPWTFGGGTKLEIK
- binding [3]: binds

Reference: patent US20170306031A1
